Data as given in PubChem BioAssay AID504764 (Drosophila RNAi Screening Center, 2011).

Assay: 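Genes whose knock-down alters Notch-dependent transcription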 (primary screen)
Cell system: Drosophila Kc167 cells
Knock-down reagent: long dsRNA against Drosophila genes
Duration: about 5 days (4 days dsRNA, then 24 h after transfection)
Conditions: transfection of constitutively active membrane-tethered Notch lacking the extracellular domain, read 24 h later
Read-out: 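Firefly luciferase from an E(spl)m3 reporter with active Notch, plus control-promoter and uninduced reporter wells for normalisation; unnormalised counts, duplicate wells a and b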
Reading the numbers: induced reporter light, run 1, well a and induced reporter light, run 1, well b: higher = more light from the Notch target reporter with active Notch; control promoter light, run 1, well a and control promoter light, run 1, well b: higher = more light from the viral control promoter (cell number, transfection, viability); uninduced reporter light, run 1, well a: higher = more light from the Notch target reporter without active Notch
Hit rule: 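Hit if the duplicate-averaged log2 ratio of induced to control-promoter light gives a plate-wise z beyond ±2, or induced to uninduced beyond ±1.8; weak-control or discordant-duplicate wells dropped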
Meaning of the calls: active = modifier hit (raised or lowered Notch signal); inactive = not a hit
In all, the deposit lists about 22,000 reagents; shown is a random part of those with a known target gene and a result. In the full data, 403 (1.9%) got an active call. 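Unnormalised raw counts per well; ratio z-scores behind the hit calls and whether each hit raises or lowers signal are not deposited.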 Reagents against one gene are numbered here. A plus sign joins genes that one reagent is predicted to hit. Not given: the amount of reagent.

no.	predicted target	dsRNA no.	induced reporter light, run 1, well a	induced reporter light, run 1, well b	control promoter light, run 1, well a	control promoter light, run 1, well b	uninduced reporter light, run 1, well a	Outcome
1	enc	1	1.19e5	1.26e5	1.96e5	1.81e5	7250	inactive
2	CG15279	1	2.18e5	2.57e5	2.10e5	2.03e5	17600	inactive
3	CG11977	1	74350	90650	71780	48760	6350	inactive
4	Cyp9b2	1	1.59e5	1.50e5	2.01e5	1.76e5	14135	inactive
5	ScpX	1	2.23e5	1.94e5	2.01e5	2.14e5	15935	inactive
6	RpS12	1	43895	37930	39905	24650	5515	inactive
7	TTLL15	1	1.18e5	99300	1.52e5	93685	8165	inactive
8	PVRAP	1	81970	1.07e5	70205	59825	7695	inactive
9	PVRAP	2	1.39e5	1.35e5	3.48e5	2.66e5	7950	active
10	CSN1a	1	1.04e5	1.13e5	1.23e5	1.31e5	11040	inactive
11	Pxt	1	2.28e5	1.39e5	1.62e5	1.63e5	10405	inactive
12	tow	1	8030	9050	10920	10232	2675	inactive
13	CG5535	1	1.29e5	1.22e5	79265	68165	9505	inactive
14	l(3)05822	1	1.50e5	1.54e5	1.97e5	2.08e5	14745	inactive
15	FAM21	1	94440	1.20e5	2.29e5	1.70e5	8550	inactive
16	obst-H	1	2.41e5	1.96e5	2.37e5	2.33e5	9682	inactive
17	obst-H	2	2.20e5	1.38e5	20282	4610	21765	inactive
18	CG6983	1	85845	77515	68830	24805	9895	inactive
19	Larp7	1	58920	69955	77970	1.01e5	5155	inactive
20	CG4502	1	1.35e5	1.36e5	94375	1.02e5	8770	inactive
21	Tsp68C	1	2.39e5	2.09e5	2.32e5	3.08e5	22075	inactive
22	Mnat9	1	1.29e5	1.40e5	2.40e5	1.77e5	8720	inactive
23	Roc1a	1	51225	44450	69615	84075	5060	inactive
24	CG18746	1	40605	67760	82580	58675	5840	inactive
25	shot	1	1.97e5	2.26e5	1.99e5	1.97e5	18888	inactive
26	shot	2	1.88e5	1.58e5	2.26e5	2.11e5	16060	inactive
27	shot	3	2.01e5	1.50e5	1.72e5	1.49e5	13200	inactive
28	CG17770 + Acam	1	1.77e5	1.68e5	2.02e5	1.93e5	11675	inactive
29	CG17770 + Acam	2	1.47e5	1.59e5	2.15e5	1.77e5	11525	inactive
30	Hakai	1	2.62e5	2.34e5	2.15e5	2.18e5	18225	inactive
31	Myo10A	1	1.18e5	90845	1.99e5	1.22e5	7205	inactive
32	Myo10A	2	1.28e5	1.14e5	1.89e5	1.99e5	9230	inactive
33	CG42676	1	61700	54920	1.18e5	1.08e5	6995	inactive
34	CG42676	2	1.35e5	1.46e5	1.84e5	1.79e5	5692	inactive
35	Ir20a	1	84895	71410	86635	1.13e5	8990	inactive
36	su(sable)	1	79365	83315	1.87e5	1.81e5	6985	inactive
37	CG15638	1	1.45e5	1.47e5	1.55e5	1.73e5	11742	inactive
38	Acyp	1	1.32e5	1.43e5	1.39e5	1.45e5	12330	inactive
39	CG14607	1	30410	28755	50445	37215	4082	inactive
40	Syt1	1	1.15e5	79775	1.29e5	1.37e5	6805	inactive
41	Syt1	2	1.13e5	1.17e5	1.22e5	1.01e5	8015	inactive
42	Syt1	3	1.20e5	79885	1.53e5	1.53e5	8325	inactive
43	Syt1	4	1.97e5	1.68e5	1.87e5	1.74e5	12065	inactive
44	Top3alpha	1	68835	43210	48120	44535	3295	inactive
45	CG32986	1	1.07e5	1.30e5	93125	95545	19030	inactive
46	yellow-d2	1	2.62e5	2.65e5	1.89e5	2.38e5	21075	inactive
47	gogo	1	86125	1.03e5	1.09e5	1.29e5	6240	inactive
48	gogo	2	1.14e5	1.24e5	1.15e5	85630	6210	inactive
49	Sap130	1	1.77e5	1.73e5	1.52e5	1.63e5	2610	active
50	SMC3	1	22688	32845	25825	19092	3095	inactive
